According to patent publication US5674676 (dated 1997):

Experiment: general procedure: Fmoc solid-phase peptide synthesis; Wang resin (polystyrene/1% divinylbenzene), 0.50 mmol/g; dicyclohexylcarbodiimide / N-hydroxybenzotriazol
Details: whole synthesis
[1] = RP-HPLC, scale of the general procedure 5 g of Wang resin

For H-SRRFAQALPVWARPD-OH, the “crude HPLC purity” value [1] was 31%, the “final HPLC purity” value [1] was 95.2% and the crude mass (scale 5 g Wang resin) was 2.4 g.
